Drug screen on melanoma cell lines: apoptosis marker

Data from the primary screen of doi:10.1371/journal.pone.0140310, rounded.

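Human melanoma cell lines in 1,536-well plates were treated with a pair of drugs for 72 h, then fixed, stained and imaged. Values are the share of nuclei positive for cleaved PARP as a percentage of the same share in the DMSO control: 100 is the control level, higher means more apoptosis. Concentrations were fixed for each drug; these are the higher of two levels. The file gives one value for each pair and line, without errors, so small differences may be noise. The marker varies much from line to line, for technical or biological reasons.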
This is part of the screen, not chosen by result.
An entry leaves out what has no value listed here.
A dash means that no value is listed here.

All values are for the listed drug together with BMS-536924 (1 µM): Cc1cc(N2CCOCC2)cc2[nH]c(-c3c(NC[C@@H](O)c4cccc(Cl)c4)cc[nH]c3=O)nc12

* CCN(CC)CCNC(=O)c1c(C)[nH]c(/C=C2\C(=O)Nc3ccc(F)cc32)c1C at 2 µM | C32: 226; IPC-298: 97.1; SK-MEL-2: 76.8; MeWo: 148; WM3619: 112; A2058: 298; SK-MEL-30: 267
* CC(C)(C)c1cnc(CSc2cnc(NC(=O)C3CCNCC3)s2)o1 at 0.05 µM | C32: 135; IPC-298: 30.7; SK-MEL-2: 149; MeWo: 230; WM3619: 142; A2058: 225; SK-MEL-30: 105
* Cn1cc(/C=C2\C(=O)Nc3cccnc32)c2ccccc21 at 2 µM | 501mel: 49.6; C32: 95.9; IPC-298: 86.4; SK-MEL-2: 59.0; MeWo: 119; WM3619: 101; A2058: 144; SK-MEL-30: 71.5
* Cn1cnc2c(F)c(Nc3ccc(Br)cc3Cl)c(C(=O)NOCCO)cc21 at 0.075 µM | C32: 256; IPC-298: 320; SK-MEL-2: 54.8; MeWo: 249; WM3619: 146; A2058: 300; SK-MEL-30: 266
* C[C@]1(O)C[C@@H](c2nc(-c3ccc4ccc(-c5ccccc5)nc4c3)c3c(N)nccn32)C1 at 2 µM | C32: 355; IPC-298: 69.5; SK-MEL-2: 127; MeWo: 175; WM3619: 137; A2058: 128; SK-MEL-30: 181
* Clc1ccc(Nc2nnc(Cc3ccncc3)c3ccccc23)cc1 at 10 µM | C32: 203; IPC-298: 41.7; SK-MEL-2: 90.8; MeWo: 172; WM3619: 128; A2058: 91.7; SK-MEL-30: 49.2
* c1cc(-c2cnn3cc(-c4ccc(OCCN5CCCCC5)cc4)cnc23)ccn1 at 2 µM | 501mel: 319; C32: 277; IPC-298: 115; SK-MEL-2: 188; MeWo: 85.5; WM3619: 144; A2058: 240; SK-MEL-30: 224
* CN(c1ncccc1CNc1nc(Nc2ccc3c(c2)CC(=O)N3)ncc1C(F)(F)F)S(C)(=O)=O at 0.4 µM | C32: 132; IPC-298: 65.0; SK-MEL-2: 113; MeWo: 106; WM3619: 82.5; A2058: 107; SK-MEL-30: 35.1
* O=C(O)c1ccc2c(c1)nc(Nc1cccc(Cl)c1)c1ccncc12 at 2 µM | C32: 331; IPC-298: 121; SK-MEL-2: 209; MeWo: 130; WM3619: 140; A2058: 375; SK-MEL-30: 284
* CO[C@H]1C[C@@H]2CC[C@@H](C)[C@@](O)(O2)C(=O)C(=O)N2CCCC[C@H]2C(=O)O[C@H]([C@H](C)C[C@@H]2CC[C@@H](OCCO)[C@H](OC)C2)CC(=O)[C@H](C)/C=C(\C)[C@@H](O)[C@@H](OC)C(=O)[C@H](C)C[C@H](C)/C=C/C=C/C=C/1C at 0.1 µM | C32: 317; IPC-298: 135; SK-MEL-2: 145; MeWo: 253; WM3619: 157; A2058: 160; SK-MEL-30: 155
* CCCS(=O)(=O)Nc1ccc(F)c(C(=O)c2c[nH]c3ncc(Cl)cc23)c1F at 0.4 µM | C32: 666; IPC-298: 172; MeWo: 156; WM3619: 108; A2058: 191; SK-MEL-30: 89.4
* Cc1cc([N+](=O)[O-])ccc1NS(=O)(=O)c1cc(Cl)ccc1Cl at 5 µM | 501mel: 318; C32: 226; IPC-298: 255; SK-MEL-2: 186; MeWo: 66.6; WM3619: 384; A2058: 223; SK-MEL-30: 69.2
* COc1ccc(-c2ccc3c(N4CCOCC4)nc(N4C[C@@H](C)O[C@@H](C)C4)nc3n2)cc1CO at 0.1 µM | 501mel: 66.4; C32: 120; IPC-298: 60.1; SK-MEL-2: 238; MeWo: 61.7; WM3619: 151; A2058: 98.6; SK-MEL-30: 89.8
* Cn1cc(C2=C(c3cn(C4CCN(Cc5ccccn5)CC4)c4ccccc34)C(=O)NC2=O)c2ccccc21 at 4 µM | C32: 275; IPC-298: 136; SK-MEL-2: 520; MeWo: 52.5; WM3619: 91.1; A2058: 230; SK-MEL-30: 80.8
* Nc1nc(F)nc2c1ncn2[C@@H]1O[C@H](CO)[C@@H](O)[C@@H]1O at 1 µM | C32: 41.9; IPC-298: 43.3; SK-MEL-2: 475; MeWo: 126; WM3619: 99.8; A2058: 28.7; SK-MEL-30: 1310
* Cc1cc(Nc2cc(N3CCN(C)CC3)nc(/C=C/c3ccccc3)n2)n[nH]1 at 0.2 µM | C32: 107; IPC-298: 126; SK-MEL-2: 158; MeWo: 98.2; WM3619: 94.6; A2058: 183; SK-MEL-30: 94.2
* CN1CCN(c2ccc3nc(-c4c(N)c5c(F)cccc5[nH]c4=O)[nH]c3c2)CC1 at 0.5 µM | C32: 127; IPC-298: 103; SK-MEL-2: 523; MeWo: 441; WM3619: 123; A2058: 547; SK-MEL-30: 118
* Cc1nc(Nc2ncc(C(=O)Nc3c(C)cccc3Cl)s2)cc(N2CCN(CCO)CC2)n1 at 0.02 µM | C32: 996; IPC-298: 103; SK-MEL-2: 120; MeWo: 153; WM3619: 115; A2058: 372; SK-MEL-30: 145
* CCCCCCCCCCCC1=C(O)C(=O)C=C(O)C1=O at 6 µM | 501mel: 158; C32: 94.6; IPC-298: 146; SK-MEL-2: 261; MeWo: 46.9; WM3619: 81.1; A2058: 131; SK-MEL-30: 138
* O=C(O)C(=O)Nc1sc2c(c1C(=O)O)CCNC2 at 8.33 µM | 501mel: 57.4; C32: 92.3; IPC-298: 78.9; SK-MEL-2: 220; MeWo: 98.5; WM3619: 97.9; A2058: 129; SK-MEL-30: 125
* O=C(CCCCCCC(=O)Nc1ccccc1)NO at 0.4 µM | C32: 149; IPC-298: 46.2; SK-MEL-2: 119; MeWo: 91.5; WM3619: 112; A2058: 79.0; SK-MEL-30: 114
* COc1ccc(COc2ccc(Cc3cnc(N)nc3N)cc2OC)cc1 at 5 µM | 501mel: 191; C32: 83.4; IPC-298: 22.5; SK-MEL-2: 84.7; MeWo: 127; WM3619: 131; A2058: 154; SK-MEL-30: 86.2

The first 2 entries again:

| Second drug | 501mel | C32 | IPC-298 | SK-MEL-2 | MeWo | WM3619 | A2058 | SK-MEL-30 |
|---|---|---|---|---|---|---|---|---|
| CCN(CC)CCNC(=O)c1c(C)[nH]c(/C=C2\C(=O)Nc3ccc(F)cc32)c1C at 2 µM | - | 226 | 97.1 | 76.8 | 148 | 112 | 298 | 267 |
| CC(C)(C)c1cnc(CSc2cnc(NC(=O)C3CCNCC3)s2)o1 at 0.05 µM | - | 135 | 30.7 | 149 | 230 | 142 | 225 | 105 |